Source: patent publication US7538129B2, “Diazonamide A analog” (Board of Regents, The University of Texas System, priority 2005, dated 2009)
Some of these results come from one statement about several compounds together.

What was measured:
HCT116 xenografts = experiment: growth inhibition of HCT116 xenografts; format: in vivo, mice; settings: expected outcome of protocol, HCT116, 20 mg/kg IV q2d x6
Description: Details of the preparation of murine models containing xenografts of HCT116 cells or PC-3 cells are described in the section following these examples. After the tumors were grown, therapy utilizing Compound J or paclitaxel was initiated. […] In FIG. 4A, the *'s represent control mice, the squares represent 5 mg/kg Compound J; the diamonds represent 20 mg/kg Compound J; and the slanted line represents 20 mg/kg paclitaxel.
The details of the protocol for Examples 19 and 20 are as follows: […]

PC-3 xenografts = experiment: growth inhibition of PC-3 xenografts; format: in vivo, mice; settings: expected outcome of protocol, PC3, 20 mg/kg IV q2d x6
Description: In FIG. 4B, the squares are the control, the dark circles are the data-points for Compound J and the light diamonds are data-points for paclitaxel.
The details of the protocol for Examples 19 and 20 are as follows:
• PC3 prostrate tumor cells and HCT116 colon tumor cells (acquired from the tumor repository Division of Cancer Treatment and Diagnosis (DCTD) of the NCI • Complete RPMI Media • RPMI (Cat# 11875-085, Invitrogen) • 10% Heat-inactivated (30′ 56° C.) Fetal Bovine Serum (Cat# 100-106, Gemini Bio-Products • 2 mM L-glutamine (Cat# 25030-081, Invitrogen) • 0.1 mM MEM Non-Essential Amino Acids Solution (Cat#11140-050, Invitrogen) • 10 U/ml Penicillin/10 μg/ml Streptomycin (Cat#15140-122, Invitrogen) • 1 mM Sodium Pyruvate (Cat#l 1360-070) • Trypsin-EDTA (Cat#25300-054, Invitrogen) • Ca^2+/Mg^2+-free Phosphate Buffered Saline, 5% dextrose in water • Cell Culture Dish 150 mm×25 mm (Cat# 430599, Coming, Inc.) • 10 and 25 ml pipets, standard pipet-aid, p200 and p1000 pipette tips and standard pipetmen • Athymic NCr-nu/nu nude mice at 6-12 weeks of age, either sex (Strain code: 01B74, NCI Frederick Animal Production Program—suppliers include Charles River Labs and Taconic Farms). […]

With CC(=O)O[C@H]1C(=O)[C@@]2(C)[C@H]([C@H](OC(=O)c3ccccc3)[C@]3(O)C[C@H](OC(=O)[C@H](O)[C@@H](NC(=O)c4ccccc4)c4ccccc4)C(C)=C1C3(C)C)[C@]1(OC(C)=O)CO[C@@H]1C[C@@H]2O [paclitaxel, reference compound] as the molecule, how does the “cures, % of mice” value (HCT116 xenografts) read?
The value was 40-80%.

And the “cures, % of mice” value (PC-3 xenografts)?
The value was 40-80%.
